Test results: the supplement of paper PMC6411743
± gives the standard deviation of the averaged measurements. This is one part of the list.

Chains of the proteins cited; added tags and fusions are not shown. Lines headed by an entry give the natural chain unless they say otherwise; changes in a name come on top.
UniProt Q9NRA8: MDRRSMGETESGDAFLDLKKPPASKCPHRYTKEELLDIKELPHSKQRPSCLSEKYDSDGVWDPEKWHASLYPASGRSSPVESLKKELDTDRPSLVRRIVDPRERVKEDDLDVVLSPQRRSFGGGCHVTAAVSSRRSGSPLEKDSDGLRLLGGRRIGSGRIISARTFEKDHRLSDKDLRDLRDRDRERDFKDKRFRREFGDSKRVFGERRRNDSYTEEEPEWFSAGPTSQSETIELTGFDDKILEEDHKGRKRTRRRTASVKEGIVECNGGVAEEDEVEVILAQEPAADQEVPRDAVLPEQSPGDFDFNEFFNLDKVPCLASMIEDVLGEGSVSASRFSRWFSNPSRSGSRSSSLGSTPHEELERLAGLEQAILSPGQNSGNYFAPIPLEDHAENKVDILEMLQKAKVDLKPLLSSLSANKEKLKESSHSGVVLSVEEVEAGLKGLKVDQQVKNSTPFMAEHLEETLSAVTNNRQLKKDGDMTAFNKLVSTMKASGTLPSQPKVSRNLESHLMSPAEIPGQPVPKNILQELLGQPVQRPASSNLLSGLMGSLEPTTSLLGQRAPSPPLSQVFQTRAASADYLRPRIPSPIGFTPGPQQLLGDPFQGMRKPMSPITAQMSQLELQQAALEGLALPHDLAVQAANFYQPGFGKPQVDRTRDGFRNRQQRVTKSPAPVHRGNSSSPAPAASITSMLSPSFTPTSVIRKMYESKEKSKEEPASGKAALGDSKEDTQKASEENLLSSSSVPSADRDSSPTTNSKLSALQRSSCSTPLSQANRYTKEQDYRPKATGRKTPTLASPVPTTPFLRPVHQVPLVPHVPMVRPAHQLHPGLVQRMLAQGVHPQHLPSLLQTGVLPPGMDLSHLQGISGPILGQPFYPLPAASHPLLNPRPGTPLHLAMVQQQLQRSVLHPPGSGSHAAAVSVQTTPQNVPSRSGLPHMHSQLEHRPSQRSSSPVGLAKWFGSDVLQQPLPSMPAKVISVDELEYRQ
UniProt P08069, whole entry, looked up: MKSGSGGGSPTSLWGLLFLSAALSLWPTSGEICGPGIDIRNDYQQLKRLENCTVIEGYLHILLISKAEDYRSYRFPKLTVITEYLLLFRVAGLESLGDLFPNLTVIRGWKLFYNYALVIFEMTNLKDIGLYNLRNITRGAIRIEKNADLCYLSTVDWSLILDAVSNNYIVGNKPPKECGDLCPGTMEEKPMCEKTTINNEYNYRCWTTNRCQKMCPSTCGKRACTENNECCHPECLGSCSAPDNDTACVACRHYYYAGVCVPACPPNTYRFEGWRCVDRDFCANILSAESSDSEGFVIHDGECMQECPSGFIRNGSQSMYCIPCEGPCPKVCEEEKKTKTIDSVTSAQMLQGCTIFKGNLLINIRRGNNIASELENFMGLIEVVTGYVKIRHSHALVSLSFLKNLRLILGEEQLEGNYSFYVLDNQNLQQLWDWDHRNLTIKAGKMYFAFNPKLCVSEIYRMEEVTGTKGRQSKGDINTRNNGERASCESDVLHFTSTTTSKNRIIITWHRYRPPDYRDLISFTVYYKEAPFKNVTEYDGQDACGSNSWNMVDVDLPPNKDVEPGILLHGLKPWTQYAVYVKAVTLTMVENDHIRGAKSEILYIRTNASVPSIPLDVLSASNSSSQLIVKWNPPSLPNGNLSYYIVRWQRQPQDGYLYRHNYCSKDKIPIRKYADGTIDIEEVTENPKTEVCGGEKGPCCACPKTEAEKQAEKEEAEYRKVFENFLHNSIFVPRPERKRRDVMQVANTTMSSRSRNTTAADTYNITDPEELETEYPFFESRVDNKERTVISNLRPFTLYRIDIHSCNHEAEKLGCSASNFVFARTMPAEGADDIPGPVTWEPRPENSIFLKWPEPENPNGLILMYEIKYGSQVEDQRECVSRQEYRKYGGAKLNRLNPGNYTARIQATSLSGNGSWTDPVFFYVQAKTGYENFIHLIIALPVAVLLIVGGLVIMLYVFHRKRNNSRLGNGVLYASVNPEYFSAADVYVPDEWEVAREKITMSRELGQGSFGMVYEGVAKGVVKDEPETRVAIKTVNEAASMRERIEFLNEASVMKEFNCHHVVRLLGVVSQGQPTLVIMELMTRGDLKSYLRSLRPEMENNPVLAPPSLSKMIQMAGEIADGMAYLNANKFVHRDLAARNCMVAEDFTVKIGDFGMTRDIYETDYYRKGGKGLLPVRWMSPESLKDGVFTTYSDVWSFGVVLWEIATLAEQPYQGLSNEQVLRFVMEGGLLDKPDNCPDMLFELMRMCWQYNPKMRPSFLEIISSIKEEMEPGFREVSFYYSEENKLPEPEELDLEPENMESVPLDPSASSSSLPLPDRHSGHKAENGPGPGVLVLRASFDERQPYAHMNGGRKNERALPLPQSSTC
UniProt P08133: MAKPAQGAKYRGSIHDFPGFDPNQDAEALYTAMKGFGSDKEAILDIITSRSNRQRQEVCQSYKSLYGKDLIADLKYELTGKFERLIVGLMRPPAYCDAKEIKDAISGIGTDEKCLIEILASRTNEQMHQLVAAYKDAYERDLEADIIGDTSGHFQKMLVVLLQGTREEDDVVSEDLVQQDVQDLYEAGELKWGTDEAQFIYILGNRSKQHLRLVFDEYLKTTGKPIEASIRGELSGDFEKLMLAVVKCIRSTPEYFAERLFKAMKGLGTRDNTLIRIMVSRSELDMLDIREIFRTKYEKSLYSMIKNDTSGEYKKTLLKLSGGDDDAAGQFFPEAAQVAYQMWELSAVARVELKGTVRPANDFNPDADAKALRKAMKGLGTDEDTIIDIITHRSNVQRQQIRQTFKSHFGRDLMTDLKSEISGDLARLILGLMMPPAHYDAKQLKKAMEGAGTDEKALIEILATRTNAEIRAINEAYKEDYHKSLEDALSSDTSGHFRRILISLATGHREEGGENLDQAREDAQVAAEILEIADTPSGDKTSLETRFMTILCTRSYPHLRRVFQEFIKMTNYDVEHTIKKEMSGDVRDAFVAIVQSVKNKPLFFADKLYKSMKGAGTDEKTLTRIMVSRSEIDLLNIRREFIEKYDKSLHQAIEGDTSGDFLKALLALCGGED
UniProt Q86WB0: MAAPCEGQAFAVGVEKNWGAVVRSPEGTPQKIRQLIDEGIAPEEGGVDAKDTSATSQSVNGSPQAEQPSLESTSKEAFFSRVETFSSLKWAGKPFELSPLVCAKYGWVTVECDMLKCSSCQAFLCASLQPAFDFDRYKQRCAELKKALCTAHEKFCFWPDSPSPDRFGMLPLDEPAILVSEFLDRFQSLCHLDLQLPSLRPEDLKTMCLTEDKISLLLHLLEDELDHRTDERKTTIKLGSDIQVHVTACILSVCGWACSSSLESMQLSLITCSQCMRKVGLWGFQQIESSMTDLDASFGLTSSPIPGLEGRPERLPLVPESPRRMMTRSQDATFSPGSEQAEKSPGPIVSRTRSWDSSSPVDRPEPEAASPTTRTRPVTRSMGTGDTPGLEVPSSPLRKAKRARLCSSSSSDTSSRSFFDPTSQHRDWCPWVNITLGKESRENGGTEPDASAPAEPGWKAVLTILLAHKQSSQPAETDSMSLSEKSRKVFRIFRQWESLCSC
UniProt Q9Y2K5: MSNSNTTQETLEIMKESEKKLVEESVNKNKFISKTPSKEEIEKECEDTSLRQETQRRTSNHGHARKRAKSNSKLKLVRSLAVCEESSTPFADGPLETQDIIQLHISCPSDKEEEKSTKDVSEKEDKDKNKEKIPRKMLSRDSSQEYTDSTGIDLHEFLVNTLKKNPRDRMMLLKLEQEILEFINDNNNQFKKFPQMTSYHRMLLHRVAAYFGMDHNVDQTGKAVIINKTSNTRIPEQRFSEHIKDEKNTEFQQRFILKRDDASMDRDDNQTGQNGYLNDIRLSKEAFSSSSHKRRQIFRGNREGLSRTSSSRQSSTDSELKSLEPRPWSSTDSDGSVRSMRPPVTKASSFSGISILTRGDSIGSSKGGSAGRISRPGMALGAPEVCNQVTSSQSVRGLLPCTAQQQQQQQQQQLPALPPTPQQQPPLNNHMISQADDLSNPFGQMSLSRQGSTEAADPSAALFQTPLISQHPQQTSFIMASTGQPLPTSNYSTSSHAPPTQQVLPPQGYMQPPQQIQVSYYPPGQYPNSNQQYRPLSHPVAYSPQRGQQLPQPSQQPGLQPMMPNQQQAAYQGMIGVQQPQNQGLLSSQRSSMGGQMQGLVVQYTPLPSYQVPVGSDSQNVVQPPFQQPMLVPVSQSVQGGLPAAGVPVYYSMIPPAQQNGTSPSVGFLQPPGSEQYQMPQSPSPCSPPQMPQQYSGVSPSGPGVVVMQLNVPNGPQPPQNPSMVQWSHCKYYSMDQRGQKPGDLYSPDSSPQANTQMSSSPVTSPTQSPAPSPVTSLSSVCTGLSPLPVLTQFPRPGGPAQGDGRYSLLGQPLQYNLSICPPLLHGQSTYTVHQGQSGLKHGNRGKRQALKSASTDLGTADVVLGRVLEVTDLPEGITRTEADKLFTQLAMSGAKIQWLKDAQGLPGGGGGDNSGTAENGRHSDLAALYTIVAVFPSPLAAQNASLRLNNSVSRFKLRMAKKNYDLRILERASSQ
UniProt P43243: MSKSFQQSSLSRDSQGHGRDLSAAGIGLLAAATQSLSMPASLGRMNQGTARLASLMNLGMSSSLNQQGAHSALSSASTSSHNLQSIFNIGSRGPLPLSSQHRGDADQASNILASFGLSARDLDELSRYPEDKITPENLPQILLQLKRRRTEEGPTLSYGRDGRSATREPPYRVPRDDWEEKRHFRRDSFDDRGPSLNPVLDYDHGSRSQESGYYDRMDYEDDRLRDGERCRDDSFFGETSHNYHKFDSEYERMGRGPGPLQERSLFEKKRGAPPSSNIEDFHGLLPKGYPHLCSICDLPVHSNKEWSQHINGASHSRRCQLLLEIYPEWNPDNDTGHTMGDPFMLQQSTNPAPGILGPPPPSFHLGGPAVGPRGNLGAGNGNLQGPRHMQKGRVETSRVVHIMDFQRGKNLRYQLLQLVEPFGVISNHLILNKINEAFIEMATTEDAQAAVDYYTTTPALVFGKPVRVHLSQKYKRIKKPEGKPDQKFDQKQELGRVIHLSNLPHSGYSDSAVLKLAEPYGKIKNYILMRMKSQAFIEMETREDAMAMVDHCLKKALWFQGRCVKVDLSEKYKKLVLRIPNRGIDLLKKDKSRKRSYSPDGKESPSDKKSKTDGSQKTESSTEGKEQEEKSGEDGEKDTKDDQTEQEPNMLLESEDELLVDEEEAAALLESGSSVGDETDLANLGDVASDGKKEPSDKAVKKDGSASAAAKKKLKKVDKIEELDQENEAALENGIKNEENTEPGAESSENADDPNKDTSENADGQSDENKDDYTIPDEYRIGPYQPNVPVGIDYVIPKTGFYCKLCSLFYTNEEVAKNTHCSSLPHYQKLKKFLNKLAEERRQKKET
UniProt P55209: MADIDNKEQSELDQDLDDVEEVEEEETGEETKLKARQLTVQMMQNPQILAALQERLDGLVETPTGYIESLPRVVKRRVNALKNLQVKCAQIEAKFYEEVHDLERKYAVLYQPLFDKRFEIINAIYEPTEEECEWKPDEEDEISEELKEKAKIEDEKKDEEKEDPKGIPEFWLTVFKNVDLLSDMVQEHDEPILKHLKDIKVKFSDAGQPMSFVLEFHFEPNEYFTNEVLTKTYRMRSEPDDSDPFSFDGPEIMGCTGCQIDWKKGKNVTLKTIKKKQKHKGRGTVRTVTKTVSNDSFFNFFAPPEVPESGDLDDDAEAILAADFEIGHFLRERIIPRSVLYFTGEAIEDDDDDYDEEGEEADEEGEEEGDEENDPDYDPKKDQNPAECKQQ
UniProt Q9Y5N5: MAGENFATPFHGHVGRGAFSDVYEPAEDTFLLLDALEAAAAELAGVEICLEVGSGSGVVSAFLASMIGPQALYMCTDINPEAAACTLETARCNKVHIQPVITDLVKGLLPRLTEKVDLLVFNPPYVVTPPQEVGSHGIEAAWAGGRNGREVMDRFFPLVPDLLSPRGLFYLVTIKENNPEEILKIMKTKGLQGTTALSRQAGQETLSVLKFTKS
UniProt O00541, whole entry: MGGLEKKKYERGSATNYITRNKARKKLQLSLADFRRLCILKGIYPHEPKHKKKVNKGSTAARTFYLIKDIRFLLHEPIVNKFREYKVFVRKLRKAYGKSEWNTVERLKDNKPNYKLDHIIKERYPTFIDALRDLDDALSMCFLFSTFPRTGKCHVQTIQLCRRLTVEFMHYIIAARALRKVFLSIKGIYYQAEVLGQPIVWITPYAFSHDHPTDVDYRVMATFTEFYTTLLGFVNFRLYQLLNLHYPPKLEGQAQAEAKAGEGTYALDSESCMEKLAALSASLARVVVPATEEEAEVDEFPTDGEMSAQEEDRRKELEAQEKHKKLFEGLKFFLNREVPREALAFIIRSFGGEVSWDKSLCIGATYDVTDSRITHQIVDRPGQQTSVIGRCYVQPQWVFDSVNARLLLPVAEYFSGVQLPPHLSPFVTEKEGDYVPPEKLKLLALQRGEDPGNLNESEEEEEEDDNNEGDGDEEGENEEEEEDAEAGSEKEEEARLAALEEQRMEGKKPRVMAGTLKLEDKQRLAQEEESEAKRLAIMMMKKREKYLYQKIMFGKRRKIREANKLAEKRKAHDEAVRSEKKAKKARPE

Compound: Nc1nc2c(ncn2[C@@H]2O[C@H](COP(=O)(O)OP(=O)(O)OP(=O)(O)O)[C@@H](O)[C@H]2O)c(=O)[nH]1 [guanosine triphosphate]
Test: NP40-soluble protein abundance relative to vehicle (solubility fold change) (ratio); higher = more soluble protein in presence of GTP
Method in brief: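 Each value is a fold change relative to the detergent-processed vehicle, calculated per replicate from vsn-normalised intensities. Jurkat crude lysate received eight concentrations (0.1 to 10 mM) for 10 min at room temperature and 3 min at 37 °C, then was solubilised in 0.8% NP40 with benzonase (60 min, 4 °C). The ultracentrifuged supernatant was TMT-labelled and run by LC-MS/MS in three independent experiments.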

| Target | NP40-soluble protein abundance (concentration: 0.1mM) | NP40-soluble protein abundance (concentration: 0.5mM) | NP40-soluble protein abundance (concentration: 1mM) | NP40-soluble protein abundance (concentration: 2mM) | NP40-soluble protein abundance (concentration: 4mM) | NP40-soluble protein abundance (concentration: 6mM) | NP40-soluble protein abundance (concentration: 8mM) | NP40-soluble protein abundance (concentration: 10mM) |
| --- | --- | --- | --- | --- | --- | --- | --- | --- |
| B1AKL4 and related entries (UniProt Q9NRA8) | 1.07 ± 0.031 | 1.02 ± 0.02 | 1.11 ± 0.036 | 1.07 ± 0.043 | 1.12 ± 0.04 | 1.09 ± 0.042 | 1.15 ± 0.063 | 1.14 ± 0.072 |
| C9J5X1 and related entries (UniProt P08069) | 1.04 ± 0.13 | 1.04 ± 0.13 | 1.15 ± 0.11 | 0.987 ± 0.07 | 1 ± 0.086 | 1.05 ± 0.1 | 1.07 ± 0.14 | 1.04 ± 0.2 |
| E7EMW7 and related entries (UniProt O95071) | 1.09 ± 0.081 | 1.19 ± 0.12 | 1.24 ± 0.21 | 1.33 ± 0.25 | 1.32 ± 0.28 | 1.31 ± 0.29 | 1.31 ± 0.29 | 1.26 ± 0.3 |
| C9J0J7 and related entries (UniProt P35080) | 0.97 ± 0.069 | 0.936 ± 0.059 | 0.945 ± 0.066 | 0.902 ± 0.057 | 0.929 ± 0.12 | 0.895 ± 0.092 | 0.914 ± 0.11 | 0.898 ± 0.086 |
| E5RJF5 and related entries (UniProt P08133) | 0.944 ± 0.012 | 0.962 ± 0.024 | 0.906 ± 0.034 | 0.87 ± 0.025 | 0.85 ± 0.027 | 0.864 ± 0.03 | 0.829 ± 0.051 | 0.821 ± 0.055 |
| A6PW57 and related entries (UniProt Q99755) | 1.06 ± 0.053 | 1.07 ± 0.036 | 1.11 ± 0.03 | 1.16 ± 0.058 | 1.2 ± 0.063 | 1.2 ± 0.066 | 1.27 ± 0.083 | 1.19 ± 0.046 |
| C9J0I9 and related entries (UniProt Q86WB0) | 1.02 ± 0.02 | 0.984 ± 0.025 | 0.996 ± 0.013 | 0.961 ± 0.036 | 0.962 ± 0.04 | 0.926 ± 0.033 | 0.972 ± 0.015 | 0.926 ± 0.044 |
| C9JA28 and related entries (UniProt Q9UNL2) | 0.978 ± 0.085 | 0.971 ± 0.086 | 0.909 ± 0.073 | 0.853 ± 0.13 | 0.81 ± 0.12 | 0.841 ± 0.14 | 0.855 ± 0.056 | 0.829 ± 0.11 |
| A6NFX8 and related entries (UniProt Q9UKK9) | 1.05 ± 0.036 | 1.04 ± 0.07 | 0.987 ± 0.036 | 0.994 ± 0.079 | 0.968 ± 0.046 | 0.942 ± 0.052 | 0.93 ± 0.018 | 0.93 ± 0.01 |
| B5MCU0 (UniProt Q9Y2K5) | 1.02 ± 0.041 | 1 ± 0.0098 | 1.05 ± 0.1 | 1.02 ± 0.017 | 0.862 ± 0.097 | 0.941 ± 0.12 | 1.05 ± 0.032 | 0.9186 ± 0.0046 |
| A8MXP9 and related entries (UniProt P43243) | 0.954 ± 0.028 | 0.998 ± 0.036 | 1.04 ± 0.025 | 1.02 ± 0.054 | 1.02 ± 0.032 | 1.04 ± 0.047 | 1.06 ± 0.056 | 1.06 ± 0.072 |
| D6RB08 and related entries (UniProt P14316) | 0.962 ± 0.05 | 1.04 ± 0.051 | 0.993 ± 0.022 | 0.973 ± 0.052 | 0.952 ± 0.048 | 0.971 ± 0.1 | 0.985 ± 0.024 | 1.06 ± 0.086 |
| C9JVP0 and related entries (UniProt Q9UPW0) | 1.01 ± 0.026 | 1.05 ± 0.17 | 1.14 ± 0.019 | 1.08 ± 0.13 | 1.13 ± 0.1 | 1.05 ± 0.17 | 1.06 ± 0.1 | 1.13 ± 0.063 |
| B7Z9C2 and related entries (UniProt P55209) | 0.943 ± 0.1 | 0.979 ± 0.083 | 0.929 ± 0.083 | 0.934 ± 0.093 | 0.924 ± 0.11 | 0.928 ± 0.073 | 0.946 ± 0.09 | 0.965 ± 0.1 |
| B2WTI3 and related entries (UniProt Q6NYC1) | 0.973 ± 0.058 | 0.983 ± 0.064 | 0.99 ± 0.069 | 0.94 ± 0.061 | 0.978 ± 0.072 | 0.887 ± 0.038 | 0.964 ± 0.078 | 0.991 ± 0.1 |
| B2RA97 and related entries (UniProt Q9Y5N5) | 1.04 ± 0.22 | 1.05 ± 0.074 | 0.958 ± 0.16 | 1.01 ± 0.18 | 0.898 ± 0.14 | 0.967 ± 0.14 | 0.927 ± 0.16 | 0.899 ± 0.13 |
| A6NHB5 and related entries (UniProt Q14202) | 1.08 ± 0.056 | 1.12 ± 0.075 | 1.18 ± 0.092 | 1.31 ± 0.14 | 1.37 ± 0.16 | 1.4 ± 0.15 | 1.46 ± 0.15 | 1.42 ± 0.16 |
| A6NEM2 and related entries (UniProt P51610) | 0.952 ± 0.074 | 0.962 ± 0.063 | 0.981 ± 0.058 | 0.968 ± 0.069 | 0.985 ± 0.06 | 0.996 ± 0.056 | 1.01 ± 0.069 | 1.01 ± 0.098 |
| B5MCF9 and related entries (UniProt O00541) | 1.05 ± 0.073 | 1.06 ± 0.093 | 1 ± 0.041 | 0.996 ± 0.041 | 0.992 ± 0.046 | 0.966 ± 0.071 | 0.961 ± 0.047 | 0.937 ± 0.015 |
| C9J2P0 and related entries (UniProt P51965) | 0.894 ± 0.11 | 0.874 ± 0.11 | 0.88 ± 0.13 | 0.839 ± 0.15 | 0.863 ± 0.14 | 0.831 ± 0.097 | 0.849 ± 0.097 | 0.892 ± 0.14 |
| C9J381 and related entries (UniProt P20839) | 1.06 ± 0.051 | 1.16 ± 0.17 | 1.17 ± 0.2 | 1.22 ± 0.24 | 1.29 ± 0.27 | 1.2 ± 0.26 | 1.18 ± 0.27 | 1.15 ± 0.24 |
| C9J0K6 and related entries (UniProt P30626) | 0.91 ± 0.1 | 0.85 ± 0.056 | 1.01 ± 0.12 | 1.01 ± 0.083 | 0.995 ± 0.13 | 0.956 ± 0.077 | 0.91 ± 0.11 | 1.05 ± 0.17 |
| C9J6U3 and related entries (UniProt O60879) | 0.99 ± 0.043 | 1 ± 0.04 | 0.994 ± 0.063 | 0.983 ± 0.074 | 0.974 ± 0.058 | 0.985 ± 0.063 | 0.993 ± 0.044 | 0.978 ± 0.043 |
| C9J406 and related entries (UniProt Q16891) | 0.9 ± 0.061 | 0.976 ± 0.064 | 1 ± 0.049 | 1.02 ± 0.049 | 1.04 ± 0.073 | 1.08 ± 0.084 | 1.09 ± 0.12 | 1.08 ± 0.14 |
| C9J050 and related entries (UniProt P49585) | 1.01 ± 0.094 | 0.986 ± 0.078 | 0.953 ± 0.074 | 0.945 ± 0.077 | 0.992 ± 0.073 | 0.942 ± 0.058 | 0.942 ± 0.079 | 0.936 ± 0.054 |
| B0YIW6 and related entries (UniProt P48444) | 1.06 ± 0.053 | 1.08 ± 0.078 | 1.02 ± 0.066 | 1.01 ± 0.11 | 1.02 ± 0.1 | 1.01 ± 0.083 | 0.975 ± 0.059 | 0.933 ± 0.067 |

Another view of part of the listing above.
Target	NP40-soluble protein abundance (concentration: 0.1mM)	NP40-soluble protein abundance (concentration: 0.5mM)	NP40-soluble protein abundance (concentration: 1mM)	NP40-soluble protein abundance (concentration: 2mM)	NP40-soluble protein abundance (concentration: 4mM)	NP40-soluble protein abundance (concentration: 6mM)	NP40-soluble protein abundance (concentration: 8mM)	NP40-soluble protein abundance (concentration: 10mM)
D6RB08 and related entries (UniProt P14316)	0.962 ± 0.05	1.04 ± 0.051	0.993 ± 0.022	0.973 ± 0.052	0.952 ± 0.048	0.971 ± 0.1	0.985 ± 0.024	1.06 ± 0.086
C9JVP0 and related entries (UniProt Q9UPW0)	1.01 ± 0.026	1.05 ± 0.17	1.14 ± 0.019	1.08 ± 0.13	1.13 ± 0.1	1.05 ± 0.17	1.06 ± 0.1	1.13 ± 0.063
B7Z9C2 and related entries (UniProt P55209)	0.943 ± 0.1	0.979 ± 0.083	0.929 ± 0.083	0.934 ± 0.093	0.924 ± 0.11	0.928 ± 0.073	0.946 ± 0.09	0.965 ± 0.1
B2WTI3 and related entries (UniProt Q6NYC1)	0.973 ± 0.058	0.983 ± 0.064	0.99 ± 0.069	0.94 ± 0.061	0.978 ± 0.072	0.887 ± 0.038	0.964 ± 0.078	0.991 ± 0.1
B2RA97 and related entries (UniProt Q9Y5N5)	1.04 ± 0.22	1.05 ± 0.074	0.958 ± 0.16	1.01 ± 0.18	0.898 ± 0.14	0.967 ± 0.14	0.927 ± 0.16	0.899 ± 0.13
